## Primary screen of a compound library

By UniProt entry, the sequences of proteins in these tests, tags left out.
UniProt P9WFT3, whole entry: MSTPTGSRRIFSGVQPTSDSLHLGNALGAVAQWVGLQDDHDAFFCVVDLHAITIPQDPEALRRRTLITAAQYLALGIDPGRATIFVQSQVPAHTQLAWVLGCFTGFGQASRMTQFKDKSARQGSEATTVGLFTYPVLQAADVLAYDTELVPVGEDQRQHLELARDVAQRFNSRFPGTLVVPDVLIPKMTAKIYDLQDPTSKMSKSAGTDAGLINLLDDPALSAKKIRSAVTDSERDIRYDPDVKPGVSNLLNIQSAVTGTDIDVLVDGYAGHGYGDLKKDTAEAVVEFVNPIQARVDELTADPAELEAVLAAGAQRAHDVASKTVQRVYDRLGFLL
UniProt I6X8D2, whole entry: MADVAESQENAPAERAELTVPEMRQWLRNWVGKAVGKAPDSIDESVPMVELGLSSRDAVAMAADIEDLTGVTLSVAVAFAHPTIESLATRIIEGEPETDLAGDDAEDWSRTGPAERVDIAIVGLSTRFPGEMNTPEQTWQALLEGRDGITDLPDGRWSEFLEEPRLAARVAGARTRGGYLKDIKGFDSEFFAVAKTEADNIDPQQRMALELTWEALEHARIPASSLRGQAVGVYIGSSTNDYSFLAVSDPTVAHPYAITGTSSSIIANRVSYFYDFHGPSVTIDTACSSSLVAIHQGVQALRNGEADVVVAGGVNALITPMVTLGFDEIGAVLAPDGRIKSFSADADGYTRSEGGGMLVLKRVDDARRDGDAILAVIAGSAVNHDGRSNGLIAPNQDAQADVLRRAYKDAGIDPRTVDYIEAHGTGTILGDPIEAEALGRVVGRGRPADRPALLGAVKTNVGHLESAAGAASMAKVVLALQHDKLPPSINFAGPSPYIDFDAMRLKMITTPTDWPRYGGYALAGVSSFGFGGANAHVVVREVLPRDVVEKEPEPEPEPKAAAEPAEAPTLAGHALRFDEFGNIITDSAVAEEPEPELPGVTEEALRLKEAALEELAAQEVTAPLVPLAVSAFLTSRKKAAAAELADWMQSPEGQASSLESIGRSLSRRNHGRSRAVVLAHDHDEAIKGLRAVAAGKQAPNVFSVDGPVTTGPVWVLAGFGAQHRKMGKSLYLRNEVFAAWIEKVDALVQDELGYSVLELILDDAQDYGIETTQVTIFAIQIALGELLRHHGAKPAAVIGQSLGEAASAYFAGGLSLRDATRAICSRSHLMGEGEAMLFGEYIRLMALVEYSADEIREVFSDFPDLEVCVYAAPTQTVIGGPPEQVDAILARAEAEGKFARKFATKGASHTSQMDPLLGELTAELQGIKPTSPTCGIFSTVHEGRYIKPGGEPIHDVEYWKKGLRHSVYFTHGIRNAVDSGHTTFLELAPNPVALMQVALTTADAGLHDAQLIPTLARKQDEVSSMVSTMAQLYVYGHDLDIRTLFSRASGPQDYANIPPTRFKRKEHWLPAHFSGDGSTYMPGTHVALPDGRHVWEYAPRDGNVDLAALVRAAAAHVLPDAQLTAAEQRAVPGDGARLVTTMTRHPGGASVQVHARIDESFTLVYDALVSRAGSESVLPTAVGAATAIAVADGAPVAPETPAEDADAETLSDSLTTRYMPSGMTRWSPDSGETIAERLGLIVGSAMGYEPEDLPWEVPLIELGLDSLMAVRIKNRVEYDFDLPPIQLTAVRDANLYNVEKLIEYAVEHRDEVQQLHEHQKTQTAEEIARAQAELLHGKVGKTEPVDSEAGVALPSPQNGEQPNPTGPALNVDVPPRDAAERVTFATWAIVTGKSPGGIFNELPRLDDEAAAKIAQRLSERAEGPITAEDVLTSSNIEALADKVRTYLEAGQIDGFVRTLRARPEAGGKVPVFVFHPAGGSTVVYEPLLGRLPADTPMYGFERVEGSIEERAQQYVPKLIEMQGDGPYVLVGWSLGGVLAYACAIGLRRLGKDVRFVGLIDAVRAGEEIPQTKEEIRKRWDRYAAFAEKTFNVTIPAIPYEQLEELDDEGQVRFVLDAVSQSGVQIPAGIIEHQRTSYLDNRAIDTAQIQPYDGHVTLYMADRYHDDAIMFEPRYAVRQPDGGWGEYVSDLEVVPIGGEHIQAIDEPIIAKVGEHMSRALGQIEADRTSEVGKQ
UniProt P9WNZ1, whole entry: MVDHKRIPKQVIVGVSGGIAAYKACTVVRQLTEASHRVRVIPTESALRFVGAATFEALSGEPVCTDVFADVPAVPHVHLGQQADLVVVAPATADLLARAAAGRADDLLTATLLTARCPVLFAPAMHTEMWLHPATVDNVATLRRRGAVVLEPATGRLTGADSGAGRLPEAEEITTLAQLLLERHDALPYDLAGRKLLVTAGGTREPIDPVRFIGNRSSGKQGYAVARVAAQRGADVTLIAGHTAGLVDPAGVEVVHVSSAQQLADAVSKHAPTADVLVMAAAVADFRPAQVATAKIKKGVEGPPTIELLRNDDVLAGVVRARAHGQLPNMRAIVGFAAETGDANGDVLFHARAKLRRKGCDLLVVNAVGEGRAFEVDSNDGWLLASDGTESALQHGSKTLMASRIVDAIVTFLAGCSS

MtTrpRS: 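Enzyme assay of tryptophanyl-tRNA synthetase; the read-out is not stated. Target: Tryptophan-tRNA ligase, Mycobacterium tuberculosis (UniProt P9WFT3). Concentration: 10 µM. Direction is not recorded; retested compounds ran higher, which suggests that high means inhibition. About 65,000 compounds were tested under these conditions; 0.098% (about 64) showed 50% or more at least once.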
Pks13 thioesterase: 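Polyketide synthase Pks13, Mycobacterium tuberculosis (UniProt I6X8D2). Enzyme assay of the thioesterase domain of polyketide synthase 13; the read-out is not stated. Concentration: 30 µM. The record gives no direction; the compounds picked for IC50 retests had high values, so higher reads as stronger inhibition. Of about 67,000 compounds tested this way, about 300 (0.46%) reached 50% or more in at least one test.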
CoaBC: 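Coenzyme A biosynthesis protein CoaBC, Mycobacterium tuberculosis (UniProt P9WNZ1). Enzyme assay of CoaBC with a phosphate dye (Biomol Green) read at 650 nm. Compounds at 30 µM. Higher reads as stronger inhibition, judged from the few compounds that gave an IC50. Most strong results did not repeat in a second test. About 67,000 compounds were tested under these conditions; 0.06% (about 40) showed 50% or more at least once.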

Each number is a percent effect as filed. The record does not define 0% and 100%; most values in the screen are far below 50% and negative numbers occur (in some assays of this library far below -100). This is an unselected part of the compounds tested. A dash means the value is not listed here; it may have been measured.

structure,MtTrpRS,Pks13 thioesterase,CoaBC
Nc1cc(C(=O)NC2CCCN(CCCc3ccccc3)C2)ccn1 (centres unmarked),-5.429,8.373,-1.083
CCS(=O)(=O)N1CCc2ncnc(C)c2CC1,-4.017,-37.18,-0.2114
O=C(NC1CC1)N1CCC2(CC1)CC(N1CCOCC1)c1ccccc12 (centres unmarked),-6.296,-4.458,0.7389
COc1ccccc1CN1C(=O)O[C@@H]2CN(C(C)C)C[C@@H]21,-6.197,-17.47,-1.071
Cn1cc(CN2C[C@@H]3COC[C@]3(C(=O)NCc3cccs3)C2)cn1,-2.813,-8.764,-8.642
CCc1ccc(CNC(=O)CCc2nnc(-c3ccc(C)s3)o2)nc1,2.081,-10.12,-5.295
CC(=O)N[C@H]1CCO[C@@H](c2cccc(NC(=O)c3ccc(=O)[nH]n3)c2)C1,27.48,-0.9487,0
CCOc1cc(C)c(-c2cc(N)[nH]n2)cc1OCC,0.9488,-1.384,-0.9685
CC(C)c1nccn1-c1cccc(C2CCCN(C3CCCC3)C2)n1 (centres unmarked),2.75,-25.77,7.199
Cc1nc(N)nc(N2CCOc3ccc(CO)cc3C2)c1C,-6.307,-32.66,-5.484
Cc1nnc(NC(=O)NCCCN2CCC(C(N)=O)CC2)s1,-0.153,-1.68,-4.642
c1cnn(CC2CN(Cc3nc(C4CC4)no3)CCO2)c1 (centres unmarked),14.8,-,5.227
CCc1nnc(CN(CC)C(=O)C2CC(=O)N(Cc3cccnc3)C2)o1 (centres unmarked),-0.4881,-,2.99
Cc1nc(C)c(CN2CCOC(CN(C)c3cccnn3)C2)s1 (centres unmarked),-2.522,1.528,10.58
COc1ccc(C(C)NCCc2ccc(NC(C)=O)cc2)c(OC)c1 (centres unmarked),0.6056,10.81,-8.738
CC(C)c1nc(C2CCCN(C(=O)CCn3cncn3)C2)no1 (centres unmarked),-7.456,-0.5979,15.35
COc1ccccc1N1CCN(C(=O)c2ccoc2)CC1,1.11,-37.35,-
CSc1ccc(-c2nc(CN3CCC(C(N)=O)CC3)c(C)o2)cc1,-3.792,-8.278,12.42
COc1ccc(OC)c(Nc2nc3c(C)nn(C)c3c(=O)n2C)c1,1.004,-9.612,-7.463
CCC(CC)(CCCNC(=O)c1c(C)noc1C)C1OCCO1,-2.16,-,7.937
Oc1c(F)cc(CNc2cccc(-c3nnc[nH]3)c2)cc1F,3.849,-23.81,0
CC1CN(C(=O)c2nccnc2N)c2ccc(F)cc2O1 (centres unmarked),5.479,10.12,-0.7212
CCOCC1c2c(ncn2C(C)C)CCN1C(C)C (centres unmarked),1.34,-40.7,7.5
Cc1nc2oc(C(=O)N3CCCC3)c(N)c2c2c1CCCC2,2.214,-9.369,1.695
CCC(CC(=O)Nc1ccc2c(c1)CC(=O)N2)c1ccccc1 (centres unmarked),0.3632,-3.062,9.274
N#Cc1c(Cl)nsc1NCCCN1C(=O)COc2ccccc21,12.19,22.51,4.497
CN(C)CCN1CC(C(=O)NCc2cn3cccnc3n2)CC1=O (centres unmarked),-5.789,13.73,2.36
COc1ccc(/C=C/CN2CCC3(C2)CN(C)C(=O)O3)cc1 (centres unmarked),-5.332,-1.002,-12.96
Cc1cccc(N2Cc3nc(N4CCC(C)CC4)ncc3C2=O)c1,1.29,-2.733,6.315
C1CN(c2nc3c(c(NC4CC4)n2)CN(CC2CCOC2)CC3)CCO1 (centres unmarked),-0.5578,-42.22,-40.21
Cn1c(Cn2ccnc2)nnc1C1CCCN(Cc2ccncc2)C1 (centres unmarked),15.92,-1.967,15.45
CNC(=O)c1cc2c(nc1NCC(C)C)CCN(S(C)(=O)=O)CC2,-0.4248,51.05,0
Cc1ccc(N2CCO[C@H]3[C@H](OCC(=O)N4CCCC4)CC[C@@H]32)cc1,-7.259,-26.36,-0.6342
OCCN(Cc1cccnc1)c1ncc(Br)cn1,0.9372,-28.28,-2.917
COc1ccc(CCNC(=O)C(C)Nc2ccc(C)c(C)c2)cc1 (centres unmarked),8.927,1.462,5.447
Cn1cnc2c1C(COCC1CCOCC1)CN(Cc1ccccn1)C2 (centres unmarked),-5.844,-19.68,6.345
CCC(C)S(=O)(=O)N1CCc2nc(C3CCNCC3)ncc2C1 (centres unmarked),-,-0.2299,-0.4843
O=c1c(CN2CCCCCC2)coc(O)c1CN1CCCCCC1,0.4823,4.88,1.823
CC(C)N(CCCNC(=O)C1CC1)S(C)(=O)=O,1.135,-58.92,1.141
CCN1CCN(CC(O)c2ccc(F)cc2)CC1 (centres unmarked),-0.8607,-5.62,4.152
CCCOCC1CCN(C(=O)Cn2cccc(C(F)(F)F)c2=O)C1 (centres unmarked),1.356,-15.36,6.41
CN1CCN(C[C@@H]2OC[C@H]3CN(Cc4ccsc4)CC[C@H]32)CC1,-0.7345,-,-2.157
CCOCC1CN(S(=O)(=O)N(C)C)Cc2cnn(C)c21 (centres unmarked),2.22,-10.21,5.376
Cc1nnc(CN2C[C@H]3CC[C@@H]2CN(C2Cc4ccccc4C2)C3)o1,-3.601,-2.108,15.5
CC(C)(C)c1ncc(C(=O)NCCSc2ccccn2)c(O)n1,-0.3673,-34.71,10.52
COc1ccc2c(c1)OCC(Cc1ccnc(N)n1)C2 (centres unmarked),1.016,-29.07,-4.142

Data taken from ChEMBL document CHEMBL3988442, “University of Dundee, Small-Polar-MMV Screening Library” (2021).